According to the supplement of paper PMC8326762, “A Small Molecule Inhibitor of Pex3–Pex19 Interaction Disrupts Glycosome Biogenesis and Causes Lethality in Trypanosoma brucei” (Frontiers in Cell and Developmental Biology, 2021):
Where a name gives a salt, the structure may show the parent alone. The list shows a part of the results. The data scatter; read single values as rough.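 Yeast growth was read as optical density at 600 nm. The two-hybrid strains grew without histidine, so growth needed the Pex3–Pex19 binding; a compound counted as trypanosome-selective if it cut growth of the trypanosome-pair strain by more than 65% and the human-pair strain by less than 65%.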

How the values were obtained:
[1] = test system: Saccharomyces cerevisiae HF7c pdr5Δ; test: general growth inhibition of yeast HF7c pdr5Δ in -Leu -Trp medium, relative to DMSO; higher = stronger general growth inhibition; conditions: 100 µM; 24 h
[2] = test system: human PEX3-PEX19 interaction (yeast two-hybrid); test: growth inhibition of yeast two-hybrid strain reporting HsPex3-HsPex19 interaction, relative to DMSO; higher = stronger inhibition of human Pex3-Pex19 interaction / growth; conditions: 100 µM; 24 h; 3-aminotriazole 10 mM
[3] = test system: T. brucei Pex3-Pex19 interaction (yeast two-hybrid); test: growth inhibition of yeast two-hybrid strain reporting TbPex3-TbPex19 interaction, relative to DMSO; higher = stronger inhibition of T. brucei Pex3-Pex19 interaction / growth; conditions: 100 µM; 24 h

Row | SMILES | general growth inhibition [1] | growth inhibition [2] | growth inhibition [3]
1 | NCCc1ccc(O)cc1 [4-Hydroxyphenethylamine hydrochloride] | 50% | 49.6% | 72.7%
2 | O=P1(N(CCCl)CCCl)NCCCO1 (stereo not drawn) [Cyclophosphamide monohydrate] | 8.18% | 2.78% | 28.1%
3 | CCCN1CCc2cc(O)cc3c2[C@H]1Cc1ccc(O)c(O)c1-3 [R(-)-2,10,11-Trihydroxy-N-propylnoraporphine hydrobromide] | 33% | 31% | 58.1%
4 | CNC(=O)Oc1ccc2c(c1)[C@]1(C)CCN(C)[C@@H]1N2C [(-)-Physostigmine] | 12.7% | 32.7% | 40%
5 | CCCN(CCC)C1CCc2ccc(O)cc2C1 (racemic) [(±)-7-Hydroxy-DPAT hydrobromide] | 39.3% | 41.1% | 67.1%
6 | CN1CCC[C@@H]1Cc1c[nH]c2ccc(Nc3ncccc3[N+](=O)[O-])cc12 | 8.71% | -1.43% | 32%
7 | CC(=O)NCCc1c[nH]c2ccccc12 [N-Acetyltryptamine] | 39.9% | 38.5% | 56%
8 | COc1ccc2c(c1)[C@]13CCCC[C@@H]1[C@H](C2)N(C)CC3 [Dextromethorphan hydrobromide monohydrate] | 24.4% | 45% | 55.6%
9 | COC(=O)N1CCN(C(=O)Cc2ccc(Cl)c(Cl)c2)C(CN2CCCC2)C1 (stereo not drawn) | 38.1% | 38.7% | 48.6%
10 | c1ccc2c(c1)OCC(C1=NCCN1)O2 (stereo not drawn) [Idazoxan hydrochloride] | 42.4% | 45.9% | 62.1%
11 | CN1CCc2cccc(Cl)c2CC1 | 47% | 45.2% | 60.9%
12 | COc1ccc2[nH]cc(CCN)c2c1 [O-Methylserotonin hydrochloride] | 49.7% | 46% | 68.1%
13 | CN1CC[C@@]2(C)c3cc(OC(=O)Nc4ccccc4)ccc3N(C)[C@@H]12 [Phenserine] | 36.6% | 37.8% | 60.5%
14 | O=C(O)Cc1cnc[nH]1 [Imidazole-4-acetic acid hydrochloride] | 34.4% | 40% | 61.6%
15 | Nc1ccncc1 [4-Aminopyridine] | 42.1% | 43% | 61.7%
16 | CC(=O)c1c(O)c(C)c(O)c(Cc2c(O)c3c(c(C(=O)/C=C/c4ccccc4)c2O)OC(C)(C)C=C3)c1O [Rottlerin] | 43.8% | 16.6% | 21.1%
17 | Cc1ncc(CNC(=O)N(CCCl)N=O)c(N)n1 [Nimustine hydrochloride] | 55% | 37% | 60.7%
18 | Cn1c(CCCC(=O)O)nc2cc(N(CCCl)CCCl)ccc21 [Bendamustine hydrochloride] | 28.6% | 33.9% | 55.4%
19 | C[N+]1(C)[C@@H]2CC(OC(=O)[C@H](CO)c3ccccc3)C[C@H]1[C@@H]1O[C@@H]12 (single isomer, unassigned; (-)) [(-)-Scopolamine methyl nitrate] | 51.3% | 50.1% | 61.5%
20 | NC(Cc1cc(O)c(O)cc1O)C(=O)O (racemic) [6-Hydroxy-DL-DOPA] | 7.86% | 0.794% | 30.7%
21 | C[C@@H]1O[C@H](C[N+](C)(C)C)C[C@H]1O (racemic) [(±)-Muscarine chloride] | 41.8% | 48.1% | 54.7%
22 | NCc1cc(O)no1 [Muscimol hydrobromide] | 33.8% | 39.6% | 52.5%
23 | COc1ccc2c(c[n+](C)c3c4cc5c(cc4ccc23)OCO5)c1OC [Chelerythrine chloride] | 52.9% | 35% | 41.8%

Row | SMILES | general growth inhibition [1] | growth inhibition [2] | growth inhibition [3]
24 | C#C[C@]1(O)CC[C@H]2[C@@H]3CCC4=Cc5nc6nc7ccccc7n6cc5C[C@]4(C)[C@H]3CC[C@@]21C | 35.7% | 31% | 49.9%
25 | CCS(=O)(=O)Nc1cccc(C(=C2CCCCC2)c2cnc[nH]2)c1 | 50.1% | 40.5% | 61%
26 | Clc1ccc(N2CC3CCC(C2)N3)nn1 | 33.3% | 39.5% | 50.6%
27 | CC(C)Oc1cccnc1N(C)C1CCN(Cc2ccccc2)CC1 | 12.9% | 10.7% | 39.6%
28 | O=S1(=O)N(CCN2CC=C(c3c[nH]c4cc(F)ccc34)CC2)c2cccc3c2N1CCC3 | 6.43% | -3.34% | 28.6%
29 | c1ccc2c(N3CCNCC3)cccc2c1 [1-(1-Naphthyl)piperazine hydrochloride] | 39.4% | 50.4% | 58.2%
30 | C[N+](C)(C)CCCCCCCCCC[N+](C)(C)C [Decamethonium dibromide] | 17.3% | 9.37% | 59%
31 | CC[C@H]1CN2CCc3cc(OC)c(OC)cc3[C@@H]2C[C@@H]1C[C@H]1NCCc2cc(OC)c(OC)cc21 [Emetine dihydrochloride hydrate] | 27% | 45.9% | 56.4%
32 | COc1ccc2c(c1O)-c1cccc3c1[C@@H](C2)N(C)CC3 [R(-)-Apocodeine hydrochloride] | 30.3% | 38.7% | 55.7%
33 | CC(Cc1ccc(O)cc1)NCC(O)c1cc(O)cc(O)c1 (stereo not drawn) [Fenoterol hydrobromide] | 28.3% | 28.8% | 52.5%
34 | N#CCCN [3-Aminopropionitrile fumarate] | 50.8% | 46.9% | 56%
35 | Cc1cc([C@@H]2CCCN2C)on1 [ABT-418 hydrochloride] | 30.3% | 26.4% | 48.7%
36 | NCCc1c[nH]c2ccc(C(N)=O)cc12 [5-Carboxamidotryptamine maleate] | 42.5% | 30.3% | 59.5%
37 | c1ccc2c(c1)[I+]c1ccccc1-2 [Diphenyleneiodonium chloride] | 27.7% | 42.5% | 68%
38 | CN1[C@@H]2CC[C@H]1C[C@@H](OC(=O)[C@H](CO)c1ccccc1)C2 [L-Hyoscyamine] | 26.6% | 34.8% | 55.2%
39 | C[C@@]12C(=O)OC(=O)[C@]1(C)[C@H]1CC[C@@H]2O1 [Cantharidin] | 85.3% | 75.6% | 73.6%
40 | CN(C(=O)Cc1ccc(Cl)c(Cl)c1)C(CN1CCCC1)c1cccc(OCC(=O)O)c1 (stereo not drawn) [ICI 204,448 hydrochloride] | 43.5% | 48.7% | 60.1%
41 | N=C(N)NN [Aminoguanidine hydrochloride] | 45.3% | 42.7% | 67.9%
42 | CC(N)Cc1c[nH]c2ccc(OCc3cccs3)cc12 (stereo not drawn) | 34.6% | 36.3% | 57.9%
43 | CC(C)C[C@H]1C(=O)N2CCC[C@H]2[C@]2(O)O[C@](NC(=O)[C@@H]3C=C4c5cccc6[nH]c(Br)c(c56)C[C@H]4N(C)C3)(C(C)C)C(=O)N12 [(+)-Bromocriptine methanesulfonate] | 28.7% | 19.8% | 34%
44 | C[N+]1(C)[C@@H]2CC[C@H]1C[C@@H](OC(=O)C(CO)c1ccccc1)C2 (stereo partly drawn) [Atropine methyl bromide] | 52.7% | 48.2% | 61.3%
45 | C[C@@H]1O[C@@H](O[C@H]2C[C@@H](O)[C@]3(CO)[C@H]4[C@H](O)C[C@]5(C)[C@@H](C6=CC(=O)OC6)CC[C@]5(O)[C@@H]4CC[C@]3(O)C2)[C@H](O)[C@H](O)[C@H]1O [Ouabain] | 44.2% | 45% | 46.7%
46 | C[N+]1(C)CCOC(O)(c2ccc(-c3ccc(C4(O)C[N+](C)(C)CCO4)cc3)cc2)C1 (stereo not drawn) [Hemicholinium-3] | 10.9% | 20.8% | 23.4%

Quoted from the listing:
In general growth inhibition [1], O=S1(=O)N(CCN2CC=C(c3c[nH]c4cc(F)ccc34)CC2)c2cccc3c2N1CCC3 shows 6.43%
In growth inhibition [2], COc1ccc2c(c1O)-c1cccc3c1[C@@H](C2)N(C)CC3 [R(-)-Apocodeine hydrochloride] shows 38.7%
In growth inhibition [3], C[C@@H]1O[C@@H](O[C@H]2C[C@@H](O)[C@]3(CO)[C@H]4[C@H](O)C[C@]5(C)[C@@H](C6=CC(=O)OC6)CC[C@]5(O)[C@@H]4CC[C@]3(O)C2)[C@H](O)[C@H](O)[C@H]1O [Ouabain] shows 46.7%
In growth inhibition [2], CC(C)Oc1cccnc1N(C)C1CCN(Cc2ccccc2)CC1 shows 10.7%
